About 7,700 (2.3%) of roughly 330,000 compounds were called active. The inconclusive results got no clear call from the source; some entries with a clear call stand among them for comparison. Calls come from the whole dose curve; as a rule, active = well fitted inhibition curve with a large enough effect; inconclusive = small, poorly fitted or top-dose-only effect, or effect the other way; inactive = flat fitted curve, though single readings scatter. Potencies of inconclusive entries are doubtful fits and often do not repeat.
Assay: qHTS screen for small molecules that inhibit ELG1-dependent DNA repair in human embryonic kidney (HEK293T) cells expressing luciferase-tagged ELG1; note: nearly all actives have a fitted effect of over 55% in size
Details: HEK293T ELG1-luciferase reporter, luminescence, 16 h, DNA damage induced by 5-fluorouridine; activity change, negative = inhibition: at 46.1 µM (top of the series)
Method in brief: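 Luminescence from the luciferase reporter, measured 30 min after ONE-Glo reagent at room temperature, was the read-out. Beforehand, 2,000 cells per well were exposed for 16 hr at 37 °C to 5-fluorouridine together with compound or vehicle.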
% is set by controls: 0 for no effect and ±100 for the full control effect; potency is the fitted concentration of half-maximal effect.

Structure (SMILES) | Potency | activity change, negative = inhibition
CC1=CC(C)[C@@H]2COC(c3ccc(O)cc3)[C@H]1C2C (stereo not given in full) | inactive | 
CCOC(=O)c1nn(-c2ccccc2C)c(=O)cc1OCC(=O)N1CCN(c2ccccc2)CC1 | inactive | 
O=C(CSC1=NCCS1)Nc1nc(-c2ccccc2)cs1 | inconclusive: 18.4 µM [activator, partial curve] | 
CN1CCCN(C(=O)c2ccccc2Cl)CC1 | inactive | 
O=C(NC1CCSC1=O)C1CC(=O)N(c2ccc(F)cc2)C1 (stereo not given) | inactive | 
O=C(NCc1ccccc1)N1CCn2c(nc3ccccc32)C1 | inactive | 
CC(C)C(=O)N1CCN(c2ccccc2NC(=S)NC(=O)c2cccs2)CC1 | inconclusive: 29.1 µM [inhibitor, single point] | 
Clc1ccc(-c2nnc(COc3ncnc4ccccc34)o2)cc1 | inconclusive: 29.1 µM [activator, partial curve, poor fit] | 
O=C(COC(=O)c1cc([N+](=O)[O-])ccc1N1CCOCC1)Nc1cccc(F)c1 | active: 20.6 µM | 
CCSc1nnc(NC(=O)c2ccc3ccccc3n2)s1 | inconclusive: 18.4 µM [activator, single point] | 
COc1cccc(OC)c1C(=O)Nc1sc2c(c1C#N)CCC2 | inactive | 
CN(C(=S)Nc1ccc(SC(F)F)cc1)c1ccc(O)cc1 | inactive | 
CCc1cccc(NC(=O)CCCn2nc(C)c3c(C)n(-c4ccccc4)nc3c2=O)c1 | inactive | 
CNC(=S)NNC(=O)c1ccc(=O)n(Cc2ccc(Cl)cc2Cl)c1 | inconclusive: 16.4 µM [inhibitor, partial curve] | 
CCC1CCCCN1CCCNC(=O)CS(=O)(=O)Cc1nc(-c2cccc(OC)c2)oc1C (stereo not given) | inactive | 
Cc1noc(C)c1COC(=O)c1cc(C)n(-c2ccccc2)c1C | inconclusive: 25.9 µM [activator, partial curve, poor fit] | 
Clc1ccsc1-c1ccnc(-n2cccc2)n1 | inconclusive: 16.4 µM [activator, single point] | 
COc1ccc(-c2nc3c(c(SCC(=O)Nc4cccc(O)c4)n2)Cc2c(CO)cnc(C)c2O3)cc1 | inactive | 
Cc1nc(CNC(=O)c2cc(COc3ccc(F)cc3Cl)on2)cs1 | inactive | 
O=C(Nc1cccc(Cl)c1)N1CCN(C/C=C/c2ccccc2)CC1 | inconclusive: 3.66 µM [inhibitor, partial curve, poor fit] | 
Cc1cc(-c2ccccc2)n(-c2cc(N/N=C/c3ccccc3O)ncn2)n1 | inconclusive: 0.651 µM [inhibitor, partial curve, poor fit] | 
CC1CCCC(NC(=O)c2ccc3c(c2)OCCO3)C1C (stereo not given) | inconclusive: 14.1 µM [activator, partial curve] | 
COc1cc(C=NNC(=O)c2ccccc2-n2cccc2)ccc1O | inactive | 
CC1=C(CO)C(=O)OC([C@@H](C)C2CC[C@H]3C4C[C@H]5O[C@]56[C@@H](O)C=CC(=O)[C@]6(C)C4CC[C@]23C)C1 (stereo not given in full) | active: 9.2 µM | 
Cn1c(SCc2ccccc2F)nnc1-c1cnccn1 | inconclusive: 16.4 µM [activator, partial curve] | 

Structure (SMILES) | Potency | activity change, negative = inhibition
N#CCCN(Cc1cccnc1)C(=O)c1sc2cc(F)ccc2c1Cl | inactive | 
Cc1ccccc1Nc1ncnc2c1cnn2Cc1ccccc1 | inconclusive: 29.1 µM [inhibitor, single point] | 
Cc1cc(C)c2c(c1)C1(OCCO1)C(=O)N2 | inconclusive: 20.6 µM [activator, single point] | 
Cc1cccc(NC(=O)CC23CC4CC(C2)CC(n2nnc(C)n2)(C4)C3)c1 | inconclusive: 18.4 µM [inhibitor, single point] | 
COc1ccc(C)cc1-n1nnnc1SCc1nc2ccccc2s1 | inconclusive: 4.11 µM [activator, full curve] | 
O=C(NCCc1c[nH]c2ccccc12)c1ccc(S(=O)(=O)NCc2ccco2)cc1 | inconclusive: 16.4 µM [inhibitor, single point] | 
COc1ccc(N2CCN(C(=O)c3ccc(S(=O)(=O)N4CCCCCC4)cc3)CC2)cc1 | inconclusive: 29.1 µM [inhibitor, single point] | 
CCc1ccc(CN(C(=O)c2ccco2)C2CCS(=O)(=O)C2)cc1 (stereo not given) | inactive | 
COc1cc2c(cc1OC)-c1nnc(-c3cccs3)n1C1(CCCC1)C2 | inactive | 
O=C(c1ccc(Oc2ccccc2)cc1)C1CCCN(C(=O)c2cnccn2)C1 (stereo not given) | active: 20.6 µM | 
COc1ccc(C(=O)OCC(=O)N2CCCC2=O)c(OC)c1 |  | inconclusive: 57.1% [activator]
CCN(CCNC(=O)C1CCN(Cc2nc(-c3ccc(Cl)cc3)oc2C)CC1)c1ccccc1 | active: 16.4 µM | 
Cn1c2ccccc2c2ncn(Cc3ccc(F)cc3)c(=O)c21 | inactive | 
CN(C)C=NC(=O)c1cc(C(=O)c2ccc(C(C)(C)C)cc2)c[nH]1 | inconclusive: 2.31 µM [activator, full curve] | 
Cc1ccc2[nH]c3c(c2c1)CCCC3NC(=O)CCl (stereo not given) | active: 17.8 µM | 
CC(C)(C)c1nn2cnnc2n(/N=C/c2cccc3ccccc23)c1=O | inconclusive: 13 µM [inhibitor, partial curve, poor fit] | 
Cc1ccc(OCC(=O)NC2CCS(=O)(=O)C2)c(C)c1 (stereo not given) | inactive | 
O=C(NCCOc1ccccc1)C1CCC(=O)N(C2CCCCCC2)C1 (stereo not given) | inactive | 
COc1ccc(NC(=S)NC(NC(=O)C(C)C)C(Cl)(Cl)Cl)c([N+](=O)[O-])c1 (stereo not given) | inactive | 
CCCCCCCNC(=O)C1(CC2CC(c3ccc(Cl)cc3)=NO2)CCN(C(=O)C2(C)CC2)CC1 (stereo not given) | inconclusive: 5.17 µM [inhibitor, single point] | 
Cc1nn(C)c(Cl)c1NC(=O)OCc1ccc(Cl)cc1Cl | inactive | 
CC(/C=C/C=C/c1ccccc1)=N\NC(=O)c1cccnc1 | inconclusive: 29.1 µM [inhibitor, single point] | 
CS(=O)(=O)N1CCc2cc(S(=O)(=O)Nc3ccc4c(c3)OCCO4)ccc21 | inconclusive: 9.2 µM [inhibitor, partial curve] | 
C=C(C(=O)c1ccccc1)C(C(=C)C(=O)c1ccccc1)c1ccc(OC)cc1 | active: 16.4 µM | 
COC(=O)c1ccc(NC(=S)N(Cc2cccnc2)Cc2ccco2)cc1 | inconclusive: 20.6 µM [inhibitor, single point] | 

Ordered by number of heavy atoms (low to high): some entries from above.
Structure (SMILES) | Potency | activity change, negative = inhibition
CC(/C=C/C=C/c1ccccc1)=N\NC(=O)c1cccnc1 | inconclusive: 29.1 µM [inhibitor, single point] | 
O=C(NCc1ccccc1)N1CCn2c(nc3ccccc32)C1 | inactive | 
N#CCCN(Cc1cccnc1)C(=O)c1sc2cc(F)ccc2c1Cl | inactive | 
COc1cc2c(cc1OC)-c1nnc(-c3cccs3)n1C1(CCCC1)C2 | inactive | 
CCN(CCNC(=O)C1CCN(Cc2nc(-c3ccc(Cl)cc3)oc2C)CC1)c1ccccc1 | active: 16.4 µM | 
CCCCCCCNC(=O)C1(CC2CC(c3ccc(Cl)cc3)=NO2)CCN(C(=O)C2(C)CC2)CC1 (stereo not given) | inconclusive: 5.17 µM [inhibitor, single point] | 

Next entries

Structure (SMILES) | Potency | activity change, negative = inhibition
CC(C)=CCOc1c2ccoc2c(OCC=C(C)C)c2oc(=O)ccc12 | active: 23.1 µM | 
Cc1ccc(NC(=O)Nc2cccc(Cl)c2)c(C(=O)O)c1 | inactive | 
CC(C)NC(=O)CCCOc1ccc(Cl)cc1Cl | inconclusive: 29.1 µM [activator, single point] | 
Cn1c(=O)c(C(=O)CN2CCCCCC2)c(N)n(Cc2ccccc2)c1=O | inactive | 
Cc1cc(C(=O)N2CCN(c3ccc([N+](=O)[O-])cc3)CC2)co1 | inactive | 
CCCOc1ccc(/C=N/O)cc1 | inconclusive: 14.6 µM [activator, partial curve] | 
O=C(Nc1cccc(O)c1)c1ccc(NC(=O)C2CCCO2)cc1 (stereo not given) | inconclusive: 18.3 µM [activator, partial curve] | 
CC(=O)c1ccc(NC(=O)c2ccc(S(=O)(=O)N3CCCC3)cc2)cc1 | inactive | 
COc1ccc(-c2nc(C#N)c(NCc3ccco3)o2)cc1 | inconclusive: 8.2 µM [activator, partial curve] | 
CCOC(=O)N1CCN(C(=O)C2CCN(C(=O)c3cc4sccc4n3CC)CC2)CC1 | inconclusive: 23.1 µM [inhibitor, single point] | 
CNC(=O)c1ccc(CNC(=O)OCC(F)(F)F)cc1 | inconclusive: 18.4 µM [activator, single point] | 
CCC(=O)N1c2ccc(S(=O)(=O)CCC(=O)NC3CCCC3)cc2CC1C (stereo not given) | inactive | 
CC(=O)N1CCN(C(=S)NCCc2ccccc2)CC1 | inactive | 
CCCC(=O)N(C1CC(C)C(C#N)(C#N)C1(C#N)C#N)N(C)C (stereo not given) | inconclusive: 6.51 µM [activator, single point] | 
C[C@H](CO)N1C[C@H](C)[C@@H](CN(C)S(=O)(=O)c2ccc(F)cc2)Oc2c(NC(=O)Nc3ccc4c(c3)OCO4)cccc2C1=O | inconclusive: 29.1 µM [inhibitor, single point] | 
CC(=O)c1ccc(NC(=O)C(C)N(C)CC(=O)Nc2ccc(Cl)cc2)cc1 (stereo not given) | inconclusive: 18.3 µM [inhibitor, single point] | 
N#CC1=C(N)OC2=C(CCc3ccccc32)C1c1ccccc1 (stereo not given) | inconclusive: 0.366 µM [inhibitor, partial curve, poor fit] | 
c1ccc(-c2cc3c(N4CCOCC4)ncnc3s2)cc1 | inconclusive: 23.1 µM [inhibitor, single point] | 
COc1ccc2nc(SCC(=O)Nc3cc(C)on3)c(C#N)cc2c1 | inconclusive: 8.2 µM [activator, partial curve] | 
O=C(NC1CCCCC1)c1cc(-c2ccc(Cl)cc2)on1 | inconclusive: 4.11 µM [activator, full curve] | 
CN(Cc1cc2ccccc2[nH]c1=O)C(=O)c1cccs1 | inactive | 
CCCCOc1ccc(-c2cnc3ccccc3n2)cc1 | inconclusive: 1.3 µM [activator, partial curve] | 
O=C(COC(=O)c1c(Cl)ccc(Cl)c1Cl)NC(=O)NCc1ccccc1 | inconclusive: 16.4 µM [inhibitor, partial curve, poor fit] | 
COc1ccc(S(=O)(=O)N2CN(CCc3ccc(OC)c(OC)c3)c3nc4ccccc4nc32)cc1 | inactive | 
O=C(Nc1ccc2nc(-c3cccs3)c(-c3cccs3)nc2c1)N1CCOCC1 | active: 5.17 µM | 

— PubChem BioAssay AID504467 (National Center for Advancing Translational Sciences (NCATS), 2011)
